Source: PMC7819943, “Rice protein-binding microarrays: a tool to detect cis-acting elements near promoter regions in rice”
The list shows a part of the results.

By UniProt entry, the sequences of proteins in these tests, tags left out.
UniProt Q0JBA9, entry or part of it: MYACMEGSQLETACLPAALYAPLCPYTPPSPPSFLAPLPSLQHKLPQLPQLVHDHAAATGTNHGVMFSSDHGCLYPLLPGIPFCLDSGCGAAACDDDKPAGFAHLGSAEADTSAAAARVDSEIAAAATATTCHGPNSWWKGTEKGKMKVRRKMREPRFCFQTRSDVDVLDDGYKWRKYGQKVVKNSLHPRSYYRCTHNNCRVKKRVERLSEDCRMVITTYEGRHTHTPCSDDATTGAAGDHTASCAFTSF

Each sequence was assayed against OsWRKY34 (Oryza sativa, UniProt Q0JBA9 1-250) (assay: protein-binding microarray (RPBM); PBS, 2% BSA, 51.3 ng/ul salmon testes DNA, 50 uM zinc acetate, 200 nM TF, 25 C, 1 h; high values mean tight binding). Conditions: protein: recombinant; tags: N-terminal polyhistidine and DsRed monomer fusion (pET32a); label: CyDye5-dUTP incorporated in the synthesized complementary strand; 3' TTTTT single-stranded linker to array surface; dsDNA, one strand shown.
How it was run: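 Polyhistidine-tagged DsRed fusions of transcription factors, joined at the N-terminus, were expressed in E. coli BL21-CodonPlus and isolated on Ni–NTA. They were incubated at 200 nM for 1 h at 25 °C on a custom Agilent array, double-stranded and BSA-blocked, in PBS with 2% BSA, salmon testes DNA and 50 µM zinc acetate. The binding signal is per-feature fluorescence intensity (arbitrary units) read on an Axon 4000B scanner after washing.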

Sequence | binding signal
GGCCCGGCCCACTCTCCACTAGCGCTCTCTCTTCTCTTTCCGGAGTCACCTAGTGCAG | 9290 fluorescence intensity (a.u.)
AAACGTATGGCTGCTCTCTCTCTGCTGATGATCTCTCTCTCGGAGTCACCTAGTGCAG | 8180 fluorescence intensity (a.u.)
AATCGTTCTTTTACCATGTTTTCTATTTTACCCTAGTTTTCGGAGTCACCTAGTGCAG | 10000 fluorescence intensity (a.u.)
GGCCGATGTGGGGAGGTGGAGGAGGAGAGAGAGGCGGGATCGGAGTCACCTAGTGCAG | 8830 fluorescence intensity (a.u.)
CTATTGTTCAAGATTTCGTCATGCTTATGACCGCAAAACCCGGAGTCACCTAGTGCAG | 8040 fluorescence intensity (a.u.)
CTCTTGTAGTTGTGTGTTGTTGTACCCCGAATCCAATATACGGAGTCACCTAGTGCAG | 13000 fluorescence intensity (a.u.)
CCCTCAACCGCTCGTCCGCGCCCATCAACCGCCAAAGACTCGGAGTCACCTAGTGCAG | 9890 fluorescence intensity (a.u.)
TTCCTGTTCTATTCTTTCAGCAATGGTTTAGGTCAACACACGGAGTCACCTAGTGCAG | 9430 fluorescence intensity (a.u.)
CTCCTACTCGTTCTCTATGGTGTGCGTGCTGTTGCTTTTTCGGAGTCACCTAGTGCAG | 16100 fluorescence intensity (a.u.)
TGGTAACCACTGTTCTGCTGTTTTGTGCTTTTCTTCTGTCCGGAGTCACCTAGTGCAG | 12600 fluorescence intensity (a.u.)
ACATTGGCGCCATTCCCAACGAACTCCTACGTCGTGGCCTCGGAGTCACCTAGTGCAG | 8780 fluorescence intensity (a.u.)
CGGTGGCTTCCCGCCTCTCCCCGCGCGTTTTCCCGCTTGACGGAGTCACCTAGTGCAG | 8900 fluorescence intensity (a.u.)
GTCCAGTAGCGGTTCGTCAGTCCAGACCAGTTCCTAGCTCCGGAGTCACCTAGTGCAG | 8470 fluorescence intensity (a.u.)
TCCTCTGGTCTGGCGAGCATTAATCTTTCAGTTTCTAGTACGGAGTCACCTAGTGCAG | 8170 fluorescence intensity (a.u.)
CCAATGTTTCGTTTTGGGTCACACTTGTGCCAATTTTTTTCGGAGTCACCTAGTGCAG | 9070 fluorescence intensity (a.u.)
TGGTTATGTGCCACAAATCATATATGCAATTTTGACTATACGGAGTCACCTAGTGCAG | 9270 fluorescence intensity (a.u.)
CCCAGGCGCCTCTCTCTCTCTCTCTAGTTTCTCGCACCACCGGAGTCACCTAGTGCAG | 10400 fluorescence intensity (a.u.)
CGTTATTACGCTGCTTCCTTTGGTCCAACCGCGTGCTCCTCGGAGTCACCTAGTGCAG | 11200 fluorescence intensity (a.u.)
GCCCACGGCCCGGCACGAAGCCCGCAATTTTGGCCCGGCCCGGAGTCACCTAGTGCAG | 8080 fluorescence intensity (a.u.)
AGATTGGGCTTTTTTTTAATGAGGGGTTAGTTCTTAAAAACGGAGTCACCTAGTGCAG | 12500 fluorescence intensity (a.u.)
AATCAATTTTTTTAAAAAAATATACACATTTCATTATCTTCGGAGTCACCTAGTGCAG | 9090 fluorescence intensity (a.u.)

No new results follow: an excerpt of the list.
Sequence | binding signal
GTCCAGTAGCGGTTCGTCAGTCCAGACCAGTTCCTAGCTCCGGAGTCACCTAGTGCAG | 8470 fluorescence intensity (a.u.)
TCCTCTGGTCTGGCGAGCATTAATCTTTCAGTTTCTAGTACGGAGTCACCTAGTGCAG | 8170 fluorescence intensity (a.u.)
CCAATGTTTCGTTTTGGGTCACACTTGTGCCAATTTTTTTCGGAGTCACCTAGTGCAG | 9070 fluorescence intensity (a.u.)
TGGTTATGTGCCACAAATCATATATGCAATTTTGACTATACGGAGTCACCTAGTGCAG | 9270 fluorescence intensity (a.u.)
CCCAGGCGCCTCTCTCTCTCTCTCTAGTTTCTCGCACCACCGGAGTCACCTAGTGCAG | 10400 fluorescence intensity (a.u.)

The results go on.

Sequence | binding signal
CTGCATTTTATTTAATCCTTTTCCATTTTTTTCTGCATTTCGGAGTCACCTAGTGCAG | 8290 fluorescence intensity (a.u.)
ATCGCTTGCTTATGAATTCGGGTTGGTTTGTTGTGTGGTACGGAGTCACCTAGTGCAG | 8630 fluorescence intensity (a.u.)
CACCTTCCTGACAGTACAGATGCAGAGCTGCTCCCTATAACGGAGTCACCTAGTGCAG | 8750 fluorescence intensity (a.u.)
CATCCATGATTCCATGGACAGCCAATCTTCTTTGCAGTTTCGGAGTCACCTAGTGCAG | 8220 fluorescence intensity (a.u.)
CCAAAAATGTTGTGGTATTTAGTTTGTTTAATTTAATTTACGGAGTCACCTAGTGCAG | 8950 fluorescence intensity (a.u.)
ACCTTCGCCTTCCGCTTCCTGCAGCCGCCTCTCTCGCAGACGGAGTCACCTAGTGCAG | 9050 fluorescence intensity (a.u.)
GGGTTCTTGCTAAGGTTTGGTGGTCTTTTCTTTCCCTAGACGGAGTCACCTAGTGCAG | 12400 fluorescence intensity (a.u.)
CTCTCCTCGCGGTCGCTTCTCGTCTCGTCCCAATCTACTCCGGAGTCACCTAGTGCAG | 11700 fluorescence intensity (a.u.)
TTTTCCTGAACGTCACCCCATTTTGTTTCCATGCGGTCCACGGAGTCACCTAGTGCAG | 8450 fluorescence intensity (a.u.)
GGCTGGGGAAAGTTGGTAGCAACCGAGAAATCGTCCGATCCGGAGTCACCTAGTGCAG | 8230 fluorescence intensity (a.u.)
CCCTGCATTCCAAAGCACTCACATTCATTGCCTTTTGAGCCGGAGTCACCTAGTGCAG | 8630 fluorescence intensity (a.u.)
ATTACCACTGATGCTGCTTGGTTCGCAATACTTGCTTCTTCGGAGTCACCTAGTGCAG | 9730 fluorescence intensity (a.u.)
TGCCTGGTTTTTTGGTCCGTTTGTGGGGCCCGCTTTTGTCCGGAGTCACCTAGTGCAG | 9190 fluorescence intensity (a.u.)
AATTTTAGCATATTGCAACCCATATTGTATCTGTTTTATTCGGAGTCACCTAGTGCAG | 9340 fluorescence intensity (a.u.)
ATAACTTAATCACATTTCCACACACACTGTTAACTTGAACCGGAGTCACCTAGTGCAG | 8910 fluorescence intensity (a.u.)
TAAGTTCTAAAATTTTCTTTCTTACCTATTTACGATTTTTCGGAGTCACCTAGTGCAG | 8760 fluorescence intensity (a.u.)
AAAGTTTAAATTGTCAAAATTTTGTCGTATACTGTCCCTACGGAGTCACCTAGTGCAG | 8430 fluorescence intensity (a.u.)
ATGCATTTTGTCCCATTTCATATCTGTTCAGCATATTTAGCGGAGTCACCTAGTGCAG | 12500 fluorescence intensity (a.u.)
TGCTGTCGCCGCGCCGTCGTCCTGCCATCGCCATCCTCTCCGGAGTCACCTAGTGCAG | 11800 fluorescence intensity (a.u.)
ATTCAGATTTCTACACCCGTGTTGCTGTGTTCTGTCTTCTCGGAGTCACCTAGTGCAG | 8100 fluorescence intensity (a.u.)
GGTGGTGCGCGAGCGTCGGCGGTCGGCGGGAGGGCGGGAGCGGAGTCACCTAGTGCAG | 9180 fluorescence intensity (a.u.)

Sequence | binding signal
CACTTCGCGCCGCCGCCCTCCGCCTCGCCGCCGCCAGAGGCGGAGTCACCTAGTGCAG | 8140 fluorescence intensity (a.u.)
TCTCCGCTGCTCCGATCCACCGTCTCCGCCGCTGCTTGAACGGAGTCACCTAGTGCAG | 9940 fluorescence intensity (a.u.)
GGTTGTATCGTTGGAAGGGATGTCCTTATCATCTTTGATCCGGAGTCACCTAGTGCAG | 10100 fluorescence intensity (a.u.)
CACAACTGCACGTATTGCGTCGCCAATGTCATCGCTAACTCGGAGTCACCTAGTGCAG | 8730 fluorescence intensity (a.u.)
TACAGCTCCACTTCTCGAATCCTTGCACCACTAGTCTCTCCGGAGTCACCTAGTGCAG | 8100 fluorescence intensity (a.u.)
AAAAACTCATAAAAACATGTGCGATATTTTTCTTTCATTTCGGAGTCACCTAGTGCAG | 8380 fluorescence intensity (a.u.)
GAGATCCTAGGTCCAAAAGAAGAGAGGGTCGTGACGGTGCCGGAGTCACCTAGTGCAG | 14700 fluorescence intensity (a.u.)
ACCTTGATTTTGTTGACATAATGTGCGAGGTATTGAGCATCGGAGTCACCTAGTGCAG | 8350 fluorescence intensity (a.u.)
TCACATTGCAGCTACATTCCATGCTTCTGCTCAAAGTTTTCGGAGTCACCTAGTGCAG | 9540 fluorescence intensity (a.u.)
ATCTCTCTCATCCAATTCCTGTGTTTTTCCTACGGTCCAACGGAGTCACCTAGTGCAG | 8170 fluorescence intensity (a.u.)
CCGCCCACCGCCGGGCTGCCGCTTCTCACGGCCATTCCTCCGGAGTCACCTAGTGCAG | 8650 fluorescence intensity (a.u.)
ATGCTCGCCCGCCGCCGACGTCGCTCTCGCCCGCCGTCGCCGGAGTCACCTAGTGCAG | 9060 fluorescence intensity (a.u.)
ATATAAATTAAAGTTGCTTTGACTTTTCTCTTATTCAAATCGGAGTCACCTAGTGCAG | 9550 fluorescence intensity (a.u.)
TTTAAGTTTGGTTTTGGCGTCTTATGTGTAATGTAATCAACGGAGTCACCTAGTGCAG | 8230 fluorescence intensity (a.u.)
TTGGTGGACATGACAGGTAAAACAAATTGGGGCGAATTCTCGGAGTCACCTAGTGCAG | 8070 fluorescence intensity (a.u.)
GTTCTCATCCCTCCCATTTGATTCTAGGCGATTTCTTTTTCGGAGTCACCTAGTGCAG | 9070 fluorescence intensity (a.u.)
TAAGACCCCGTTTCGTCGTTACTGTATTTTTGGATTTCCTCGGAGTCACCTAGTGCAG | 8330 fluorescence intensity (a.u.)
CCTTCCGTTTCTCCGATCCTCGTGTGGGCGATGAATATATCGGAGTCACCTAGTGCAG | 9490 fluorescence intensity (a.u.)
TGTTGTGTGTTTGATGCAGGTGAGGCAGGAACTCTTGTAACGGAGTCACCTAGTGCAG | 9620 fluorescence intensity (a.u.)
CACGTCGGCATCCGCAGCTTCAACTTTGGCTTCACTATCACGGAGTCACCTAGTGCAG | 8430 fluorescence intensity (a.u.)
ACTACTTAAGTTTCCCAAACAGGACTAGTTTGACCTACTTCGGAGTCACCTAGTGCAG | 8640 fluorescence intensity (a.u.)

Sequence | binding signal
CTCCACCACTCATTGCCCTCACTCTCCTCTCTCTCTCTCTCGGAGTCACCTAGTGCAG | 9150 fluorescence intensity (a.u.)
GTCTTGAGCGACCAAAGTTGGACTTTCTTCATTACATATTCGGAGTCACCTAGTGCAG | 8700 fluorescence intensity (a.u.)
TGGCAACTTCCTTATTTTTCATTACCATATTTCCCAAACTCGGAGTCACCTAGTGCAG | 9390 fluorescence intensity (a.u.)
TTCCCCGACCGTTTCTGCTCGTTTTCGAAAAAAATAATAACGGAGTCACCTAGTGCAG | 8170 fluorescence intensity (a.u.)
AGCTGGCGGCTGGCGGGTGGTGGTGGTGGCTGGCGGCGGGCGGAGTCACCTAGTGCAG | 13900 fluorescence intensity (a.u.)
TTCCGAGTTCCGACCCGCGCCGCCACGCCACGCTACATCCCGGAGTCACCTAGTGCAG | 8170 fluorescence intensity (a.u.)
CCCACCCGCGCAACCGCCTCCTCCTCGCCGCCTCCGAGCTCGGAGTCACCTAGTGCAG | 11600 fluorescence intensity (a.u.)
ACGTGGCTGGTTTAATTAGGTCCTTGTCCCACGTGATATTCGGAGTCACCTAGTGCAG | 9250 fluorescence intensity (a.u.)
GCGCGCACGCATTCGCCTCGACGCCGCATACTCGCGTCCACGGAGTCACCTAGTGCAG | 8990 fluorescence intensity (a.u.)
TGTACTGTACGTTCTCTTTGCGCGCACTGCACCATTTGTTCGGAGTCACCTAGTGCAG | 8400 fluorescence intensity (a.u.)
TCTCCGCATCACTCACTACTCAACTAGCACTACTACTAGTCGGAGTCACCTAGTGCAG | 9470 fluorescence intensity (a.u.)
ACCCAACCGACTCGCACTCGTCGTCGTCGTCCCCATCTGGCGGAGTCACCTAGTGCAG | 8140 fluorescence intensity (a.u.)
ACGTTGCTTAATCTCCTTTAATTTCTTCTTTTTTTTCTCTCGGAGTCACCTAGTGCAG | 10800 fluorescence intensity (a.u.)
TTCCACCGTCTCGTTTCGCAGACGACTCCTGCTCTGCCTCCGGAGTCACCTAGTGCAG | 10200 fluorescence intensity (a.u.)
ACCACCACCACCACCTCCACCACCACCGCGCGCACCGGCACGGAGTCACCTAGTGCAG | 8730 fluorescence intensity (a.u.)
TTTGTGCATTTATTATTATTATTCTTGTTTTTCTTTTTTTCGGAGTCACCTAGTGCAG | 8340 fluorescence intensity (a.u.)
GGCTCCCGACGCTCACGCGCGCTCCGTGCTCTGCGCCTCCCGGAGTCACCTAGTGCAG | 8190 fluorescence intensity (a.u.)
TTGTATCTAATTCGGTTTCTTTTGATTTGCAGGTTTAGGTCGGAGTCACCTAGTGCAG | 8140 fluorescence intensity (a.u.)
AAAACCTTGATTATTCTCGCTGCGTGTATCCCATTCCCACCGGAGTCACCTAGTGCAG | 9230 fluorescence intensity (a.u.)
TGGTATTCTTATCATGTCCATTGTTGACTTGCTCCTCAGACGGAGTCACCTAGTGCAG | 9770 fluorescence intensity (a.u.)
GAGAGGGAGGGAGGGAGGAGGAGGAGGAGGAGGAGGAGGACGGAGTCACCTAGTGCAG | 10500 fluorescence intensity (a.u.)
